According to the supplement of paper PMC4604168 (melanoma cell lines):
Some of the results follow. Many values rest on one well or one pass, so single values are uncertain.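 Imaging used 1,536-well plates; nuclei positive for cleaved PARP by antibody were divided by total DNA-stained nuclei to yield the apoptosis fraction. Doses for screening kept most cells viable, and cell lines differ markedly in resting and induced cleaved-PARP levels.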

test system: WM3526; experiment: cleaved PARP positive nuclei fraction relative to DMSO control; melanoma cells; higher = more apoptosis; conditions: library dose: low library concentration; 72 h

Row | Structure (SMILES) | cleaved PARP positive nuclei fraction
1 | C=CCNC1=C2C[C@@H](C)C[C@H](OC)[C@H](O)[C@@H](C)/C=C(\C)[C@H](OC(N)=O)[C@@H](OC)/C=C\C=C(/C)C(=O)NC(=CC1=O)C2=O [Tanespimycin] + CC(=O)c1c(C)c2cnc(Nc3ccc(N4CCNCC4)cn3)nc2n(C2CCCC2)c1=O [palbociclib] (first compound 0.002 µM, partner dose 0.04 µM) | 69.6%
2 | C#Cc1cccc(Nc2ncnc3cc(OCCOC)c(OCCOC)cc23)c1 [erlotinib] + Cn1c(Nc2ccc(C(F)(F)F)cc2)nc2cc(Oc3ccnc(-c4ncc(C(F)(F)F)[nH]4)c3)ccc21 [CHIR265] (first compound 0.8 µM, partner dose 0.08 µM) | 86.5%
3 | C#Cc1cccc(Nc2ncnc3cc(OCCOC)c(OCCOC)cc23)c1 [erlotinib] + Cn1nnc2c(C(N)=O)ncn2c1=O [temozolomide] (first compound 0.8 µM, partner dose 2 µM) | 106%
4 | Cn1c(Nc2ccc(C(F)(F)F)cc2)nc2cc(Oc3ccnc(-c4ncc(C(F)(F)F)[nH]4)c3)ccc21 + COCC[n+]1c2c(n(Cc3cnccn3)c1C)C(=O)c1ccccc1C2=O [YM155] (first compound 0.08 µM, partner dose 0.0004 µM) | 30.1%
5 | Clc1ccc(Nc2nnc(Cc3ccncc3)c3ccccc23)cc1 [vatalanib] + C#Cc1cccc(Nc2ncnc3cc(OCCOC)c(OCCOC)cc23)c1 [erlotinib] (first compound 2 µM, partner dose 0.8 µM) | 89%
6 | C=CCNC1=C2C[C@@H](C)C[C@H](OC)[C@H](O)[C@@H](C)/C=C(\C)[C@H](OC(N)=O)[C@@H](OC)/C=C\C=C(/C)C(=O)NC(=CC1=O)C2=O [Tanespimycin] + CC(C)CCN1c2nc(Nc3cc(F)c(O)c(F)c3)ncc2N(C)C(=O)C1C [BID1870] (first compound 0.002 µM, partner dose 0.2 µM) | 87.9%

test system: WM3619; experiment: as above; conditions: library dose: low library concentration; 72 h

Row | Structure (SMILES) | cleaved PARP positive nuclei fraction
7 | CC(=O)c1c(C)c2cnc(Nc3ccc(N4CCNCC4)cn3)nc2n(C2CCCC2)c1=O [palbociclib] + Nc1cccc2c1CN(C1CCC(=O)NC1=O)C2=O [lenalidomide] (first compound 0.04 µM, partner dose 1 µM) | 169%
8 | CC(=O)c1c(C)c2cnc(Nc3ccc(N4CCNCC4)cn3)nc2n(C2CCCC2)c1=O [palbociclib] + COc1ccc(Cl)c(Nc2nc3ccccc3nc2NS(=O)(=O)c2cccc(NC(=O)C(C)(C)N)c2)c1 [XL147] (first compound 0.04 µM, partner dose 0.8 µM) | 111%
9 | CC(=O)c1c(C)c2cnc(Nc3ccc(N4CCNCC4)cn3)nc2n(C2CCCC2)c1=O [palbociclib] + Cc1nc(Nc2ncc(C(=O)Nc3c(C)cccc3Cl)s2)cc(N2CCN(CCO)CC2)n1 [dasatanib] (first compound 0.04 µM, partner dose 0.004 µM) | 157%
10 | C=CCNC1=C2C[C@@H](C)C[C@H](OC)[C@H](O)[C@@H](C)/C=C(\C)[C@H](OC(N)=O)[C@@H](OC)/C=C\C=C(/C)C(=O)NC(=CC1=O)C2=O [Tanespimycin] + COc1ccc(Cl)c(Nc2nc3ccccc3nc2NS(=O)(=O)c2cccc(NC(=O)C(C)(C)N)c2)c1 [XL147] (first compound 0.002 µM, partner dose 0.8 µM) | 145%
11 | OCc1c[nH]c2ccccc12 [Indole-3-carbinol] + C#Cc1cccc(Nc2ncnc3cc(OCCOC)c(OCCOC)cc23)c1 [erlotinib] (first compound 0.8 µM, partner dose 0.8 µM) | 85.3%
12 | CC(=O)c1c(C)c2cnc(Nc3ccc(N4CCNCC4)cn3)nc2n(C2CCCC2)c1=O [palbociclib] + C[C@]1(c2nc3c(C(N)=O)cccc3[nH]2)CCCN1 [Veliparib] (first compound 0.04 µM, partner dose 1.4 µM) | 128%
13 | C=CCNC1=C2C[C@@H](C)C[C@H](OC)[C@H](O)[C@@H](C)/C=C(\C)[C@H](OC(N)=O)[C@@H](OC)/C=C\C=C(/C)C(=O)NC(=CC1=O)C2=O [Tanespimycin] + C#Cc1cccc(Nc2ncnc3cc(OCCOC)c(OCCOC)cc23)c1 [erlotinib] (first compound 0.002 µM, partner dose 0.8 µM) | 155%

Quoted from the listing.
Value for OCc1c[nH]c2ccccc12 [Indole-3-carbinol] + C#Cc1cccc(Nc2ncnc3cc(OCCOC)c(OCCOC)cc23)c1 [erlotinib] (first compound 0.8 µM, partner dose 0.8 µM) under cleaved PARP positive nuclei fraction: 85.3%
Value for C=CCNC1=C2C[C@@H](C)C[C@H](OC)[C@H](O)[C@@H](C)/C=C(\C)[C@H](OC(N)=O)[C@@H](OC)/C=C\C=C(/C)C(=O)NC(=CC1=O)C2=O [Tanespimycin] + COc1ccc(Cl)c(Nc2nc3ccccc3nc2NS(=O)(=O)c2cccc(NC(=O)C(C)(C)N)c2)c1 [XL147] (first compound 0.002 µM, partner dose 0.8 µM) under cleaved PARP positive nuclei fraction: 145%
